The results in this text go back to publication PMC6819484.

Protein sequences, listed by entry. Tags and fused reporters are not part of them. Lines headed by an entry give the natural chain unless they say otherwise; changes in a name come on top. Residues count along the entry.
UniProt Q13873, residues 27-1038: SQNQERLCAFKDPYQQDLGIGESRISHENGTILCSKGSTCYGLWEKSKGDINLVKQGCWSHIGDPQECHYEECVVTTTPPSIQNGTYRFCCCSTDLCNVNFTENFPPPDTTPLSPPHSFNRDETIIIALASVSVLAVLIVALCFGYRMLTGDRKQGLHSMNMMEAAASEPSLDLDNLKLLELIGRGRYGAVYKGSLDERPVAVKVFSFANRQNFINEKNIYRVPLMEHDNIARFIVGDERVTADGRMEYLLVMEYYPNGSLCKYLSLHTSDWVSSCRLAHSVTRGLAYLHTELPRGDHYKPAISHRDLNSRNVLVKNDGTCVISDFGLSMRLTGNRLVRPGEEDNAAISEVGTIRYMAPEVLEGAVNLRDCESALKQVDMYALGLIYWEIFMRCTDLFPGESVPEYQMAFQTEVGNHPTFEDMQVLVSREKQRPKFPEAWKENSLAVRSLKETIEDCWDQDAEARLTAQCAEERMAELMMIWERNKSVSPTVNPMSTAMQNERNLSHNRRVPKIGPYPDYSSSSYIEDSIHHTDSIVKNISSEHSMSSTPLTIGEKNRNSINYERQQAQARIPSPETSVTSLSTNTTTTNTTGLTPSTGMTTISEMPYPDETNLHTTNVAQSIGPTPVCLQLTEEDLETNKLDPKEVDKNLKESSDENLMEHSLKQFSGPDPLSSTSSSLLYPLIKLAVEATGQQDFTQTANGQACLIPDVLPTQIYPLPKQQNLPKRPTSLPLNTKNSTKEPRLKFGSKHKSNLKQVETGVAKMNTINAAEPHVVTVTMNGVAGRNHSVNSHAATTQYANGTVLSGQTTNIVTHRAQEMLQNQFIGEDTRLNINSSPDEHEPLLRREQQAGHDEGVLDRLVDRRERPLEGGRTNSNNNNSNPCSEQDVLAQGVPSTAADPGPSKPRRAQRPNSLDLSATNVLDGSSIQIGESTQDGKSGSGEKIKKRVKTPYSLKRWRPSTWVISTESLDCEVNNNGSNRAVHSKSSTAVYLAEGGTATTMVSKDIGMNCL
UniProt Q13705, residues 19-512: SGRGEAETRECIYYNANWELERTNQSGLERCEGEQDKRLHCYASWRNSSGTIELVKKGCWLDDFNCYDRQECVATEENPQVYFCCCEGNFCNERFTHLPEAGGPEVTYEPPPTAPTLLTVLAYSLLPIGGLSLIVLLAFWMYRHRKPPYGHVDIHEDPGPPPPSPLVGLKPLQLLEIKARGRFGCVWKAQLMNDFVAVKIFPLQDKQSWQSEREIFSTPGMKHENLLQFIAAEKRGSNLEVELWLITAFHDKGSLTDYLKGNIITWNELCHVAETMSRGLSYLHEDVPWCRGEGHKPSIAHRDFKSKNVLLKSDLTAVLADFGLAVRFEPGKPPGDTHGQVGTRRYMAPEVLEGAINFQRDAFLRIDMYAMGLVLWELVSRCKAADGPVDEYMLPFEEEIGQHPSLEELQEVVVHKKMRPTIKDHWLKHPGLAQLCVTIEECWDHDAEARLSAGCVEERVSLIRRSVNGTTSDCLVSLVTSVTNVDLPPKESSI
UniProt P12645: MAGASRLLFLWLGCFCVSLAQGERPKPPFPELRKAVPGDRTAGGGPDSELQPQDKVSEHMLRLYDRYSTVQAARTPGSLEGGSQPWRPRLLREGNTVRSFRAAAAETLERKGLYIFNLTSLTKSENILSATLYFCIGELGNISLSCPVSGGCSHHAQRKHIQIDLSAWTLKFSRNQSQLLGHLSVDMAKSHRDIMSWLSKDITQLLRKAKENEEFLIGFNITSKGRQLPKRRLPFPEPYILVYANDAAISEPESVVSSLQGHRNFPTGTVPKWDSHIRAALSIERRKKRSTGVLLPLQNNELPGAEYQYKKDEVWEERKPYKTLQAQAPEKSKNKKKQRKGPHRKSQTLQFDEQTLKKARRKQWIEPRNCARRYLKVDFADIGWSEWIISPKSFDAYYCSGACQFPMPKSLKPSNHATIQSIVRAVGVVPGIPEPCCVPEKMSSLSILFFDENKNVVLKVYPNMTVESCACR

In experiment [1] the target is Flag-tagged Bone Morphogenetic Protein receptor 2 (BMPR2-pENER-C-Flag) (human) (UniProt Q13873). Description: co-IP; KM12 cells transfected with ActRIIB alone, BMPR2 alone, or both; lysates precipitated with anti-Myc or anti-Flag antibody; endogenous BMP3 detected by western blot. A general note: A western blot detects proteins with antibodies after separation by electrophoresis.

In experiment [2] the target is Myc-tagged Activin Receptor II B (ActRIIB-pDest-C-Myc) (human) (UniProt Q13705). The description is as above.
The target in experiment [3] is Flag-tagged Bone Morphogenetic Protein receptor 2 (BMPR2-pENER-C-Flag) (human) (UniProt Q13873). Nature of the experiment: co-IP; BMP3 co-expressed with ActRIIB or BMPR2 in HCT116 cells, 48 h; lysates precipitated with anti-Myc or anti-Flag antibody; western blot.
Experiment [4] deals with Myc-tagged Activin Receptor II B (ActRIIB-pDest-C-Myc) (human) (UniProt Q13705). The description is as above.

These are yes or no findings as the source states them, for the method shown. Binding seen in cells or lysates may run through a third protein. For some of these results: A result given as binding can be weak or reduced; the word gives no strength.

For the substance “Bone Morphogenetic Protein 3 (endogenous, KM12 cells) (from UniProt P12645) (ligand)”, the binding entry was “no binding” in experiment [1] and “binds” in experiment [2].
Take “Bone Morphogenetic Protein 3 (exogenous, stably expressed in HCT116 cells) (from UniProt P12645) (ligand)”: the binding entry in experiment [3] is “no binding”; in experiment [4], “binds”.
